# Data taken from article PMC6546395.
# Results are given in words; binding and its absence hold for the method and conditions named. Some entries that bind do so weakly or less than the wild type.
# T1: Sli15 (S. cerevisiae) (UniProt P38283)
# T1 sequence: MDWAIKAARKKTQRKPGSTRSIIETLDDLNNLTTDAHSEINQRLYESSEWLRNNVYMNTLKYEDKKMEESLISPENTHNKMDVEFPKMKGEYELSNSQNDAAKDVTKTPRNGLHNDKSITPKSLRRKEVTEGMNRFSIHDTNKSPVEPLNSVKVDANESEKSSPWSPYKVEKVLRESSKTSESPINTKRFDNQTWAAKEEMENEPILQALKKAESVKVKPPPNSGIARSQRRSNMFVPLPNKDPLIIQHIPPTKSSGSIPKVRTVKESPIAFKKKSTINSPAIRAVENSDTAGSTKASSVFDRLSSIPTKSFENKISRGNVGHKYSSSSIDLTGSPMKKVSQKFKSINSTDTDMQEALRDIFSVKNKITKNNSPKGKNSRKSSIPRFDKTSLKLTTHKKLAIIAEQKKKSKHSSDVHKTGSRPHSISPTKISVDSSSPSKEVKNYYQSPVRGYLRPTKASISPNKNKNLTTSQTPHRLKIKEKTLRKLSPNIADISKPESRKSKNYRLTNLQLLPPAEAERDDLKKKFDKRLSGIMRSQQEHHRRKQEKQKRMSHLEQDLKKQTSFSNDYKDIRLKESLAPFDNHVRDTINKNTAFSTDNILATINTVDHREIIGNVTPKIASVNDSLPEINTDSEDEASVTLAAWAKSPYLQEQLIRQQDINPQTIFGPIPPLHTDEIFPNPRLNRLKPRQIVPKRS
# B1: Ipl1 (enzyme, UniProt P38991 1-367)
# chain: MQRNSLVNIKLNANSPSKKTTTRPNTSRINKPWRISHSPQQRNPNSKIPSPVREKLNRLPVNNKKFLDMESSKIPSPIRKATSSKMIHENKKLPKFKSLSLDDFELGKKLGKGKFGKVYCVRHRSTGYICALKVMEKEEIIKYNLQKQFRREVEIQTSLNHPNLTKSYGYFHDEKRVYLLMEYLVNGEMYKLLRLHGPFNDILASDYIYQIANALDYMHKKNIIHRDIKPENILIGFNNVIKLTDFGWSIINPPENRRKTVCGTIDYLSPEMVESREYDHTIDAWALGVLAFELLTGAPPFEEEMKDTTYKRIAALDIKMPSNISQDAQDLILKLLKYDPKDRMRLGDVKMHPWILRNKPFWENKRL
# Target: T1, Sli15 (S. cerevisiae)
# Test: co-purification of co-expressed subunits; subunits expressed together in High Five insect cells (biGBac baculovirus); purified by the tag of one subunit (M2 anti-FLAG agarose or Strep-Tactin); Coomassie gel
binder,measurement,value
B1,binding,binds
